Among the data in US11897859B1, “Coumarin compounds as antibacterial agents” (KING FAISAL UNIVERSITY, priority 2023, dated 2024) are MIC values, retold here.

Experiment in all cases: In vitro antibacterial activity (CLSI M07-A10 dilution), MIC
Holding throughout (assay type): cell-based

Experiment [1] has as its system Staphylococcus aureus ATCC 29213. As to conditions: ATCC29213.
Experiment [2] concerns Staphylococcus aureus ATCC BAA-1556 (MERSA resistant). The conditions noted are these: ATCCBAA1556.
For experiment [3], the system named is Staphylococcus epidermidis.
Experiment [4] deals with Bacillus subtilis MTCC 441. The conditions noted are these: MTCC441.
Experiment [5] relates to Enterococcus faecium ATCC 35667. As to conditions: ATCC35667.
The subject of experiment [6] is Enterococcus faecium ATCC 51559 (VRE resistant).
In experiment [7] the test system is Escherichia coli MTCC 443. As to conditions: MTCC443.
For experiment [8], the system named is Pseudomonas aeruginosa MTCC 741. As to conditions: MTCC741.

Molecules are shown by their SMILES. ≈ marks a conversion by molar mass, not a printed value. Bounds are passed on as bounds.

A word on the MIC: it is the smallest concentration in the dilution series that meets the test's criterion for growth inhibition. A higher MIC goes with a less susceptible organism.

On to `CN[C@H](CC(C)C)C(=O)N[C@H]1C(=O)N[C@@H](CC(N)=O)C(=O)N[C@H]2C(=O)N[C@H]3C(=O)N[C@H](C(=O)N[C@H](C(=O)O)c4cc(O)cc(O)c4-c4cc3ccc4O)[C@H](O)c3ccc(c(Cl)c3)Oc3cc2cc(c3O[C@@H]2O[C@H](CO)[C@@H](O)[C@H](O)[C@H]2O[C@H]2C[C@](C)(N)[C@H](O)[C@H](C)O2)Oc2ccc(cc2Cl)[C@H]1O` [Vancomycin, reference compound], for which the minimal inhibitory concentration (MIC) was 1 µg/mL (≈ 0.69 µM) in experiment [1]; 1 µg/mL (≈ 0.69 µM) in experiment [2]; 1 µg/mL (≈ 0.69 µM) in experiment [3]; 0.5 µg/mL (≈ 0.345 µM) in experiment [4]; 0.5 µg/mL (≈ 0.345 µM) in experiment [5]; more than 128 µg/mL in experiment [6]. Besides, the MIC in experiment [7] and in experiment [8] was more than 128 µg/mL in each case.
